From the supplement of paper PMC10849652
This is one part of the list.

Chains of the proteins cited; added tags and fusions are not shown. Lines headed by an entry give the natural chain unless they say otherwise; changes in a name come on top.
UniProt P31947: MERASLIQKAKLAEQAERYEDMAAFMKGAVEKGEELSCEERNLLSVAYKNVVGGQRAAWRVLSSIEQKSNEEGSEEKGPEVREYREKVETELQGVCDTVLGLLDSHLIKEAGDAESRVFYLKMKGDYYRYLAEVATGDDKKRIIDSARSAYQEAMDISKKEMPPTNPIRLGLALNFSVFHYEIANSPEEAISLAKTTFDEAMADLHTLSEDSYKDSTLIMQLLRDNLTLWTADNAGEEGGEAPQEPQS
UniProt Q68CR1: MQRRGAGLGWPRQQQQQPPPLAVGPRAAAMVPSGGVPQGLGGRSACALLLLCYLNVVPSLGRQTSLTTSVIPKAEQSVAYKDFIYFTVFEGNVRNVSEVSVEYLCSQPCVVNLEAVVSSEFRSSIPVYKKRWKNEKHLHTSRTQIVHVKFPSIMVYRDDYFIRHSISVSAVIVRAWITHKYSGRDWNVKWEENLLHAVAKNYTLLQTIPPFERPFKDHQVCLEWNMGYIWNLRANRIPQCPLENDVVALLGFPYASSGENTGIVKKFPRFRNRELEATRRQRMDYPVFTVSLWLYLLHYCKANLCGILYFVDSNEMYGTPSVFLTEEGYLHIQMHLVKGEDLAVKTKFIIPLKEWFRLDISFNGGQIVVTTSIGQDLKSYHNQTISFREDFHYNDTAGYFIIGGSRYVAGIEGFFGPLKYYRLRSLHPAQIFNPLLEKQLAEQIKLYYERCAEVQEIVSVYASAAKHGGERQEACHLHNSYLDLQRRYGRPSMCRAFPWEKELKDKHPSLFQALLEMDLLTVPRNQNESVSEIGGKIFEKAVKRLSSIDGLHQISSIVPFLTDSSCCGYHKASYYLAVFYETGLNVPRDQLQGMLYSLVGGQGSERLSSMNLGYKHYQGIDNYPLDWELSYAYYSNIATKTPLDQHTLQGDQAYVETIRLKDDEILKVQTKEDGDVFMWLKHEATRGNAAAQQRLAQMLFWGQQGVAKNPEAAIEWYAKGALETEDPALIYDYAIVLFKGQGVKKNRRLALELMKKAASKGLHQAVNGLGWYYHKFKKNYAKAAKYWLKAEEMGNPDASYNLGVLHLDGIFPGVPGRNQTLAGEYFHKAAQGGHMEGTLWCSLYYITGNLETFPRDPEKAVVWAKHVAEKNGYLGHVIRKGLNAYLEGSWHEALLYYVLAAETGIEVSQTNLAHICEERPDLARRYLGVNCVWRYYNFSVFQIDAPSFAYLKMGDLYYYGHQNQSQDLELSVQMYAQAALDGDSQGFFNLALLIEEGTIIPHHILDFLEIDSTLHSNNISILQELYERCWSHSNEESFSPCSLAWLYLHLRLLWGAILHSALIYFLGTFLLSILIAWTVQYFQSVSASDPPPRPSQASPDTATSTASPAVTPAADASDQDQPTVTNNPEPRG
UniProt P34896: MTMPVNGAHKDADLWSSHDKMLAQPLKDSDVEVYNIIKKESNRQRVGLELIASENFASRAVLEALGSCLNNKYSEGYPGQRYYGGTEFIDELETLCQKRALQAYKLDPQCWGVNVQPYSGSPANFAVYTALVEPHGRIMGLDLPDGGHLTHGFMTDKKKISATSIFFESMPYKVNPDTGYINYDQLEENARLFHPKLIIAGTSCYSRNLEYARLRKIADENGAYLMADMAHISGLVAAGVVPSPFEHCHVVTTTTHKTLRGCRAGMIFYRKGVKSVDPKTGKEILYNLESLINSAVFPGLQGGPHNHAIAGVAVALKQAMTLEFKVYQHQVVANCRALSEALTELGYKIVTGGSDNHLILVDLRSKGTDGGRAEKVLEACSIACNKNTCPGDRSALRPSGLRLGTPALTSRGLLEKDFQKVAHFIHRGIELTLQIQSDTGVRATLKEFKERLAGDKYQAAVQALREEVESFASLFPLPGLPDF
UniProt Q9HD40: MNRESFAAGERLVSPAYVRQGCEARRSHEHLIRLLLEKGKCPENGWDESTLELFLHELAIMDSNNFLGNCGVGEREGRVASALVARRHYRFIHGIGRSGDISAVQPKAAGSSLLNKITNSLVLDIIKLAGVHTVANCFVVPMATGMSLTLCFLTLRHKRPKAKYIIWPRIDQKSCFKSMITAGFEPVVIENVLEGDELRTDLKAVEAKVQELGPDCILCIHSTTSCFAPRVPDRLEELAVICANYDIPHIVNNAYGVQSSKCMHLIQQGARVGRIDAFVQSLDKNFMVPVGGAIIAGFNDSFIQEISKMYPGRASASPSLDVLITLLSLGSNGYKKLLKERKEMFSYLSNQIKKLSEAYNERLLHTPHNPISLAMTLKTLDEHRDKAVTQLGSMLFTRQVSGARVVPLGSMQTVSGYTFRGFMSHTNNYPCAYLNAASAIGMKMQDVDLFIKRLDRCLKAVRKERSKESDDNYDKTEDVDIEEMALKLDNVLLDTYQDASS
UniProt P08697: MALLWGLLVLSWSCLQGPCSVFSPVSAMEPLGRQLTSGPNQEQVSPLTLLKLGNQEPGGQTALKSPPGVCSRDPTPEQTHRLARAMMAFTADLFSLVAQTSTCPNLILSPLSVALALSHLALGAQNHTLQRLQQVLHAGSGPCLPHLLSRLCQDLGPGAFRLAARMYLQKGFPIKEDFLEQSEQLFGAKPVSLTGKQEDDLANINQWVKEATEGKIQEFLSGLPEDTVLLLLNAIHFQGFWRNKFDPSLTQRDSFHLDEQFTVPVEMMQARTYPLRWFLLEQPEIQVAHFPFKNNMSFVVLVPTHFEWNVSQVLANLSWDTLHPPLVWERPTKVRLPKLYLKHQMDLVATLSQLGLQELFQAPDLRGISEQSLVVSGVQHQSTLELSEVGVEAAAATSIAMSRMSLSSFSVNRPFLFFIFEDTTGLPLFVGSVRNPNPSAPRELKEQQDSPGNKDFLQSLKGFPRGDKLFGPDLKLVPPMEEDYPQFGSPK
UniProt Q13435: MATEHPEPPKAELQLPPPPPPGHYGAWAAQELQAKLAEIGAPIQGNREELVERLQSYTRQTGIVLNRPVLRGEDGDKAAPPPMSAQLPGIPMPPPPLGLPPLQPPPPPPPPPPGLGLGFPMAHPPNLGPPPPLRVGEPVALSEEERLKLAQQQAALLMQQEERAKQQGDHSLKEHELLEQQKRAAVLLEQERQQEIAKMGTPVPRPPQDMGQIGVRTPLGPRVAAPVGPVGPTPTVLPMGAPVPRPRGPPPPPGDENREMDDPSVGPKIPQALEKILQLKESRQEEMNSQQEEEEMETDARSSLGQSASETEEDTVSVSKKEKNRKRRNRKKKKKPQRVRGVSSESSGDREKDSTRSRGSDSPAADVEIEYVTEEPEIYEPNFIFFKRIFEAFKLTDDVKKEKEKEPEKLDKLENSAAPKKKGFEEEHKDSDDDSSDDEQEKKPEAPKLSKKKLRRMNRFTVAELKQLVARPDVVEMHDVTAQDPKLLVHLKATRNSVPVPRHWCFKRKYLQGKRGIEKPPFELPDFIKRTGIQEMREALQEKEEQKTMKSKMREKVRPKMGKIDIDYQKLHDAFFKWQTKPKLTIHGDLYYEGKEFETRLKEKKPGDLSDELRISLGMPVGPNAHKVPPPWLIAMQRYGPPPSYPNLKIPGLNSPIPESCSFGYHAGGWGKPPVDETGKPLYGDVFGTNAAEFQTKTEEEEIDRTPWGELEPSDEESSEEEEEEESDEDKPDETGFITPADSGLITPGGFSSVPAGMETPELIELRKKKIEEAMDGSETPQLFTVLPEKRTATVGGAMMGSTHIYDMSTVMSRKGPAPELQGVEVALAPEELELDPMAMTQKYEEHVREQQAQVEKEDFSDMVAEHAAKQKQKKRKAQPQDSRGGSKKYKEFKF
UniProt Q96ST3: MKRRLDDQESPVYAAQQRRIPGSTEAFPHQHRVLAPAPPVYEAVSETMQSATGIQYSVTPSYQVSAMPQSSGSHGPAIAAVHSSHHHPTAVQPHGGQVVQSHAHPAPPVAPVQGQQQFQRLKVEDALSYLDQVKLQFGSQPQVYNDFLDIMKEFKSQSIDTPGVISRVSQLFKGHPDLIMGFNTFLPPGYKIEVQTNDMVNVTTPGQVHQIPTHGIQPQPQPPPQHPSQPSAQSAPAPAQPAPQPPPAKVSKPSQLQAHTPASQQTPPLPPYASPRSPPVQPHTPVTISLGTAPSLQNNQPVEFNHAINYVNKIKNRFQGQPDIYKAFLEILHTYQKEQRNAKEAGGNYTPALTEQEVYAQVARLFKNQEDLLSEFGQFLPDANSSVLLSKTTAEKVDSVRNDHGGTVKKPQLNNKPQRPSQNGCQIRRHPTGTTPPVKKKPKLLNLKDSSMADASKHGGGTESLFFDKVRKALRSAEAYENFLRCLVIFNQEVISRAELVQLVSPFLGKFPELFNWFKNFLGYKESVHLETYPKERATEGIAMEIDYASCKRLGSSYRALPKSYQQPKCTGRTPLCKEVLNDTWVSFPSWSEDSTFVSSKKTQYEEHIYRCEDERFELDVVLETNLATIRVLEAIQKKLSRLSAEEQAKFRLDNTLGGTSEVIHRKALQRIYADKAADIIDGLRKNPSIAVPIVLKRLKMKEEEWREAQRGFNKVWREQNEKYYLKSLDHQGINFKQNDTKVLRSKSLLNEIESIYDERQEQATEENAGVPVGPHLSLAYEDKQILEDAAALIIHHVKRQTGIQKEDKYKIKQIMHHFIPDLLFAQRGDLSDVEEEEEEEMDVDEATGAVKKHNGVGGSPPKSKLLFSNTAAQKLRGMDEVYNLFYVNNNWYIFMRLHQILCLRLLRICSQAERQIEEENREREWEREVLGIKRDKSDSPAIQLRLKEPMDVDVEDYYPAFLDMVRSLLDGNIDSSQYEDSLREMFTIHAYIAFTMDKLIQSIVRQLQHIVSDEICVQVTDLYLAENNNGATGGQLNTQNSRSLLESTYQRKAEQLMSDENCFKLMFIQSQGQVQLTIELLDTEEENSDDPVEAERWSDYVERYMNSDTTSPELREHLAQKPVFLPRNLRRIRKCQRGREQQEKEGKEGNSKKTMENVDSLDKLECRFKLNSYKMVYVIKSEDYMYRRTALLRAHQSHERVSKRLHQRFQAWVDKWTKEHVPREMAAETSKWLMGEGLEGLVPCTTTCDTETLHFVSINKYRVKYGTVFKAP
UniProt Q99574: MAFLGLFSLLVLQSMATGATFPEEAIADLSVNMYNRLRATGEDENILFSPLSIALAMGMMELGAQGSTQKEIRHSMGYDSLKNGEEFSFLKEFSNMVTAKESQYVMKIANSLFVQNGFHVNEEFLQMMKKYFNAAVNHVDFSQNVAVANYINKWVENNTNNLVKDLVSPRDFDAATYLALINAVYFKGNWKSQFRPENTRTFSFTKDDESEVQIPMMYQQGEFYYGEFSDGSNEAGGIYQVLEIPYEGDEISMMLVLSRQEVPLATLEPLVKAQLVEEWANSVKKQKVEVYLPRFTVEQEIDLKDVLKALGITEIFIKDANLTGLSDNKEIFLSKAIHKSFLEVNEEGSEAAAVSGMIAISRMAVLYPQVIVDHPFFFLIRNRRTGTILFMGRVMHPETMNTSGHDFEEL
UniProt Q9Y3B4: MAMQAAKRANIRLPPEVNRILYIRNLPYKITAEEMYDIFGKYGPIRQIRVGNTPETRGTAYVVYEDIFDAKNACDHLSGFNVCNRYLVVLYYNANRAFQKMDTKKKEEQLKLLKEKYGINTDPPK
UniProt Q587I9: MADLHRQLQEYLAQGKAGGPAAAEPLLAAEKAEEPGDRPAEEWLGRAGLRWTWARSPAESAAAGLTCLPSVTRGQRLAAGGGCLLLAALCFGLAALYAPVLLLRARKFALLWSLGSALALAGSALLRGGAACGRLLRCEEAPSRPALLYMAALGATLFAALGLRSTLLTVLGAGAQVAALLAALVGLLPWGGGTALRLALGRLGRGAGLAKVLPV
UniProt Q9H299: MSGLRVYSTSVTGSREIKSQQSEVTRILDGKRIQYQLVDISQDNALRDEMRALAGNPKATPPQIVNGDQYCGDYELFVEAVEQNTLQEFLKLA
UniProt Q5FBB7: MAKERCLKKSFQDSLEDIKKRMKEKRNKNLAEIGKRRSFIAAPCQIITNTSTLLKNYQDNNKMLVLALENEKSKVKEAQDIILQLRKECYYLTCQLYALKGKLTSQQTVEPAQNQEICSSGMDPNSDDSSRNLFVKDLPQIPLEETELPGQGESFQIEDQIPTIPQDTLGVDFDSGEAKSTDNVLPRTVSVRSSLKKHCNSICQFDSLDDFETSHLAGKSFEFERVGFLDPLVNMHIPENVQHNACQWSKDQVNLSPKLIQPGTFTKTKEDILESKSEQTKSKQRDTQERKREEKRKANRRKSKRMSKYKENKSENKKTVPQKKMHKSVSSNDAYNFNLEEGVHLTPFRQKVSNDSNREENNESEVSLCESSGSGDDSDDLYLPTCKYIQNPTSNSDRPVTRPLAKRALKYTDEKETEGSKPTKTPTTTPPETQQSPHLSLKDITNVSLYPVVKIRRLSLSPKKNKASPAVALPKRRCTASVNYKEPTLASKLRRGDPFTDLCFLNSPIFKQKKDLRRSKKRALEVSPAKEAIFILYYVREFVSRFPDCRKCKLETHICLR

Columns and labels:
Test in all cases: log2 fold change, soluble protein after heating vs DMSO (PISA); higher = thermal stabilisation; K562 cells, 10 uM, 30 min; active = over 0.2 and 3.5 SD of the protein, either way, in both replicates (recomputed)
[1] = compound: CS(=O)(=O)c1ccc(-c2cnc(N)c(C(=O)Nc3ccccc3)n2)cc1
Method in brief: (§1)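 K562 cells at 2×10^6 cells/mL were treated with 10 μM compound for 30 min. Aliquots were heated for 3 min across 48°C-58°C, pooled, and extracted in PBS with 0.5% NP-40 at 4°C; soluble protein was the supernatant after 21,000xg for 90 min. Soluble protein was quantified by TMTpro 16plex LC-MS/MS with channel sums equalised, and reported as log2 fold change in thermal stability against DMSO controls, with values from duplicates.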

crizotinib = compound: C[C@@H](Oc1cc(-c2cnn(C3CCNCC3)c2)cnc1N)c1c(Cl)ccc(F)c1Cl [crizotinib]
Method in brief: as §1

[2] = compound: C[C@@H]1COCCN1C2=NC(=NC(=C2)C3(CC3)S(=O)(=O)C)C4=C5C=CNC5=CC=C4
Method in brief: as §1

[3] = compound: C[C@H](C1=CC=C(C=C1)C(=O)NC2=C3C=CNC3=NC=C2)N
Method in brief: as §1

duvelisib = compound: C[C@H](Nc1ncnc2nc[nH]c12)c1cc2cccc(Cl)c2c(=O)n1-c1ccccc1 [duvelisib]
Method in brief: as §1

gandotinib = compound: Cc1cc(Nc2cc(CN3CCOCC3)c3nc(C)c(Cc4ccc(Cl)cc4F)n3n2)n[nH]1 [gandotinib]
Method in brief: as §1

tozasertib = compound: Cc1cc(Nc2cc(N3CCN(C)CC3)nc(Sc3ccc(NC(=O)C4CC4)cc3)n2)n[nH]1 [tozasertib]
Method in brief: as §1

[4] = compound: Cc1cc(SCc2sc(-c3ccc(C(F)(F)F)cc3)nc2C)ccc1OCC(=O)O
Method in brief: as §1

doramapimod = compound: Cc1ccc(-n2nc(C(C)(C)C)cc2NC(=O)Nc2ccc(OCCN3CCOCC3)c3ccccc23)cc1 [doramapimod]
Method in brief: as §1

ispinesib = compound: Cc1ccc(C(=O)N(CCCN)[C@@H](c2nc3cc(Cl)ccc3c(=O)n2Cc2ccccc2)C(C)C)cc1 [ispinesib]
Method in brief: as §1

bafetinib = compound: Cc1ccc(NC(=O)c2ccc(CN3CC[C@H](N(C)C)C3)c(C(F)(F)F)c2)cc1Nc1nccc(-c2cncnc2)n1 [bafetinib]
Method in brief: as §1

[5] = compound: Cc1cccc(CC(=O)N2CCc3c2ccc(-c2cn(C)c4ncnc(N)c24)c3F)n1
Method in brief: as §1

nilotinib = compound: Cc1cn(-c2cc(NC(=O)c3ccc(C)c(Nc4nccc(-c5cccnc5)n4)c3)cc(C(F)(F)F)c2)cn1 [nilotinib]
Method in brief: as §1

[6] = compound: Cc1nc(Nc2n[nH]c3c2CN(C(=O)N[C@H](CN(C)C)c2ccccc2)C3(C)C)c2sccc2n1
Method in brief: as §1

dasatinib = compound: Cc1nc(Nc2ncc(C(=O)Nc3c(C)cccc3Cl)s2)cc(N2CCN(CCO)CC2)n1 [dasatinib]
Method in brief: as §1

[7] = compound: Cc1ncc(-c2ccnc(Nc3ccc(S(C)(=O)=O)cc3)n2)n1C(C)C
Method in brief: as §1

[8] = compound: Cn1cc(-c2ccc3c(c2)CCN3C(=O)Cc2cccc(C(F)(F)F)c2)c2c(N)ncnc21
Method in brief: as §1

[9] = compound: Cn1cc(-c2ccc3nnc(C(F)(F)c4ccc5ncccc5c4)n3n2)cn1
Method in brief: as §1

tipifarnib = compound: Cn1cncc1[C@@](N)(c1ccc(Cl)cc1)c1ccc2c(c1)c(-c1cccc(Cl)c1)cc(=O)n2C [tipifarnib]
Method in brief: as §1

mubritinib = compound: FC(F)(F)c1ccc(/C=C/c2nc(COc3ccc(CCCCn4ccnn4)cc3)co2)cc1 [mubritinib]
Method in brief: as §1

Measured: log2 fold change

SF3B1 (UniProt O75533)
inactive: [1] -0.008 | crizotinib -0.027 | [2] 0.034 | [3] 0.04 | duvelisib -0.026 | gandotinib -0.064 | tozasertib 0.05 | [4] 0.089 | doramapimod -0.016 | ispinesib -0.07 | bafetinib 0.048 | [5] 0.098 | nilotinib -0.041 | [6] -0.167 | dasatinib -0.069 | [7] -0.052 | [8] -0.041 | [9] 0.017 | tipifarnib -0.026 | mubritinib 0.082

SFN (UniProt P31947)
inactive: [1] 0.002 | crizotinib 0 | [2] 0.039 | [3] -0.029 | duvelisib 0.043 | gandotinib -0.077 | tozasertib 0.04 | [4] -0.05 | doramapimod -0.011 | ispinesib 0.033 | bafetinib 0.019 | [5] -0.035 | nilotinib -0.013 | [6] 0.012 | dasatinib 0.018 | [7] -0.013 | [8] 0.021 | [9] -0.012 | tipifarnib 0.086 | mubritinib -0.045

SEL1L3 (UniProt Q68CR1)
inactive: [1] -0.045 | crizotinib -0.02 | [2] 0.001 | [3] 0.161 | duvelisib 0.007 | gandotinib 0.05 | tozasertib -0.035 | [4] 0.093 | doramapimod 0.019 | ispinesib -0.08 | bafetinib 0 | [5] 0.034 | nilotinib 0.02 | [6] 0.051 | dasatinib 0 | [7] -0.08 | [8] -0.049 | [9] -0.031 | tipifarnib 0.198 | mubritinib -0.05

SHMT1 (UniProt P34896)
inactive: [1] -0.01 | crizotinib 0.05 | [2] 0.101 | [3] -0.036 | duvelisib 0.048 | gandotinib 0.035 | tozasertib -0.004 | [4] -0.021 | doramapimod 0.002 | ispinesib 0.045 | bafetinib 0.008 | [5] 0.009 | nilotinib 0.003 | [6] 0.04 | dasatinib 0.03 | [7] 0.006 | [8] 0.022 | [9] 0.025 | tipifarnib -0.028 | mubritinib 0.053

SKA3 (UniProt Q8IX90)
inactive: [1] -0.029 | crizotinib -0.074 | [2] -0.185 | [3] 0.195 | duvelisib 0.071 | gandotinib -0.047 | tozasertib 0.191 | [4] 0.036 | doramapimod 0.122 | ispinesib -0.358 | bafetinib -0.054 | [5] 0.052 | nilotinib -0.015 | [6] -0.11 | dasatinib -0.076 | [7] -0.038 | [8] -0.231 | [9] -0.115 | tipifarnib 0.028 | mubritinib -0.051

SEPSECS (UniProt Q9HD40)
inactive: [1] 0.023 | crizotinib 0.082 | [2] -0.043 | [3] -0.173 | duvelisib -0.03 | gandotinib -0.065 | tozasertib -0.02 | [4] -0.079 | doramapimod -0.009 | ispinesib 0.012 | bafetinib 0.015 | [5] -0.036 | nilotinib -0.052 | [6] 0.01 | dasatinib 0.04 | [7] -0.031 | [8] 0.016 | [9] -0.011 | tipifarnib -0.03 | mubritinib 0.013

SERPINF2 (UniProt P08697)
inactive: [1] -0.092 | crizotinib 0.087 | [2] 0.121 | [3] 0.023 | duvelisib -0.133 | gandotinib -0.288 | tozasertib 0.071 | [4] -0.17 | doramapimod 0.091 | ispinesib -0.199 | bafetinib -0.433 | [5] -0.032 | nilotinib 0.021 | [6] 0.062 | dasatinib 0.041 | [7] 0.494 | [8] 0.162 | [9] -0.098 | tipifarnib 0.05 | mubritinib -0.509

SF3B2 (UniProt Q13435)
inactive: [1] -0.056 | crizotinib 0.032 | [2] -0.12 | [3] 0.141 | duvelisib -0.039 | gandotinib 0.04 | tozasertib 0.063 | [4] 0.029 | doramapimod 0.033 | ispinesib -0.018 | bafetinib 0.087 | [5] -0.041 | nilotinib -0.046 | [6] -0.014 | dasatinib 0.046 | [7] 0.004 | [8] -0.088 | [9] -0.068 | tipifarnib 0.05 | mubritinib -0.034

SIN3A (UniProt Q96ST3)
inactive: [1] -0.106 | crizotinib -0.032 | [2] -0.004 | [3] -0.015 | duvelisib 0.019 | gandotinib -0.134 | tozasertib 0.186 | [4] -0.031 | doramapimod 0.047 | ispinesib -0.096 | bafetinib 0.054 | [5] 0.047 | nilotinib -0.002 | [6] -0.059 | dasatinib 0.016 | [7] -0.006 | [8] 0.011 | [9] -0.093 | tipifarnib -0.016 | mubritinib -0.001

SERPINI1 (UniProt Q99574)
inactive: [1] -0.024 | crizotinib 0.149 | [2] 0.039 | [3] -0.086 | duvelisib 0.016 | gandotinib 0.184 | tozasertib -0.027 | [4] -0.048 | doramapimod -0.012 | ispinesib 0.039 | bafetinib 0.056 | [5] -0.078 | nilotinib 0.02 | [6] -0.015 | dasatinib 0.032 | [7] -0.033 | [8] -0.03 | [9] 0.013 | tipifarnib 0.053 | mubritinib 0.121

SF3B6 (UniProt Q9Y3B4)
inactive: [1] -0.036 | crizotinib -0.05 | [2] -0.032 | [3] 0.183 | duvelisib -0.071 | gandotinib -0.062 | tozasertib -0.019 | [4] 0.041 | doramapimod 0 | ispinesib 0.019 | bafetinib 0.083 | [5] -0.027 | nilotinib 0.116 | [6] -0.049 | dasatinib 0.015 | [7] 0.038 | [8] 0.01 | [9] 0.007 | tipifarnib -0.057 | mubritinib -0.058

SFT2D3 (UniProt Q587I9)
inactive: [1] -0.037 | crizotinib 0.02 | [2] 0.047 | [3] -0.093 | duvelisib 0.116 | gandotinib -0.05 | tozasertib 0.001 | [4] -0.151 | doramapimod 0.01 | ispinesib 0.095 | bafetinib -0.053 | [5] -0.01 | nilotinib 0.078 | [6] -0.035 | dasatinib 0.034 | [7] -0.11 | [8] -0.004 | [9] -0.16 | tipifarnib 0.208 | mubritinib 0.046

SIAE (UniProt Q9HAT2)
inactive: [1] 0.084 | crizotinib -0.017 | [2] -0.035 | [3] 0.103 | duvelisib 0.265 | gandotinib -0.221 | tozasertib -0.108 | [4] -0.094 | doramapimod 0.079 | ispinesib -0.254 | bafetinib -0.026 | [5] -0.056 | nilotinib -0.113 | [6] -0.026 | dasatinib 0.199 | [7] -0.069 | [8] -0.023 | [9] 0.111 | tipifarnib 0.094

SH3BGRL3 (UniProt Q9H299)
inactive: [1] 0.013 | crizotinib 0.084 | [2] 0.139 | [3] -0.102 | duvelisib 0.036 | gandotinib -0.019 | tozasertib 0.035 | [4] -0.023 | doramapimod 0.021 | ispinesib 0 | bafetinib -0.026 | [5] 0 | nilotinib -0.01 | [6] -0.013 | dasatinib 0.024 | [7] 0.005 | [8] 0.146 | [9] -0.057 | tipifarnib -0.103 | mubritinib 0.045

3 successive entries already listed:
SF3B6 (UniProt Q9Y3B4)
inactive: [1] -0.036 | crizotinib -0.05 | [2] -0.032 | [3] 0.183 | duvelisib -0.071 | gandotinib -0.062 | tozasertib -0.019 | [4] 0.041 | doramapimod 0 | ispinesib 0.019 | bafetinib 0.083 | [5] -0.027 | nilotinib 0.116 | [6] -0.049 | dasatinib 0.015 | [7] 0.038 | [8] 0.01 | [9] 0.007 | tipifarnib -0.057 | mubritinib -0.058

SFT2D3 (UniProt Q587I9)
inactive: [1] -0.037 | crizotinib 0.02 | [2] 0.047 | [3] -0.093 | duvelisib 0.116 | gandotinib -0.05 | tozasertib 0.001 | [4] -0.151 | doramapimod 0.01 | ispinesib 0.095 | bafetinib -0.053 | [5] -0.01 | nilotinib 0.078 | [6] -0.035 | dasatinib 0.034 | [7] -0.11 | [8] -0.004 | [9] -0.16 | tipifarnib 0.208 | mubritinib 0.046

SIAE (UniProt Q9HAT2)
inactive: [1] 0.084 | crizotinib -0.017 | [2] -0.035 | [3] 0.103 | duvelisib 0.265 | gandotinib -0.221 | tozasertib -0.108 | [4] -0.094 | doramapimod 0.079 | ispinesib -0.254 | bafetinib -0.026 | [5] -0.056 | nilotinib -0.113 | [6] -0.026 | dasatinib 0.199 | [7] -0.069 | [8] -0.023 | [9] 0.111 | tipifarnib 0.094

Additional records

SFPQ (UniProt P23246)
inactive: [1] -0.055 | crizotinib 0.008 | [2] -0.164 | [3] 0.123 | duvelisib -0.03 | gandotinib 0.046 | tozasertib 0.058 | [4] 0.026 | doramapimod 0.041 | ispinesib -0.075 | bafetinib 0.075 | [5] -0.051 | nilotinib -0.045 | [6] -0.093 | dasatinib 0.054 | [7] -0.035 | [8] -0.121 | [9] -0.105 | tipifarnib 0.023 | mubritinib -0.146

SGO1 (UniProt Q5FBB7)
inactive: [1] 0.036 | crizotinib 0.056 | [2] -0.005 | [3] -0.028 | duvelisib 0.074 | gandotinib -0.034 | tozasertib -0.036 | [4] -0.033 | doramapimod -0.016 | ispinesib -0.043 | bafetinib -0.047 | [5] 0.1 | nilotinib 0.019 | [6] -0.052 | dasatinib 0.015 | [7] 0.004 | [8] 0.016 | [9] 0.03 | tipifarnib 0.031 | mubritinib 0.079
